Data reported in article PMC4591342.
Results are given in words; binding and its absence hold for the method and conditions named. In cells and extracts the contact can be indirect.

Chains of the proteins cited; added tags and fusions are not shown. Residues count along the entry.
UniProt P05804: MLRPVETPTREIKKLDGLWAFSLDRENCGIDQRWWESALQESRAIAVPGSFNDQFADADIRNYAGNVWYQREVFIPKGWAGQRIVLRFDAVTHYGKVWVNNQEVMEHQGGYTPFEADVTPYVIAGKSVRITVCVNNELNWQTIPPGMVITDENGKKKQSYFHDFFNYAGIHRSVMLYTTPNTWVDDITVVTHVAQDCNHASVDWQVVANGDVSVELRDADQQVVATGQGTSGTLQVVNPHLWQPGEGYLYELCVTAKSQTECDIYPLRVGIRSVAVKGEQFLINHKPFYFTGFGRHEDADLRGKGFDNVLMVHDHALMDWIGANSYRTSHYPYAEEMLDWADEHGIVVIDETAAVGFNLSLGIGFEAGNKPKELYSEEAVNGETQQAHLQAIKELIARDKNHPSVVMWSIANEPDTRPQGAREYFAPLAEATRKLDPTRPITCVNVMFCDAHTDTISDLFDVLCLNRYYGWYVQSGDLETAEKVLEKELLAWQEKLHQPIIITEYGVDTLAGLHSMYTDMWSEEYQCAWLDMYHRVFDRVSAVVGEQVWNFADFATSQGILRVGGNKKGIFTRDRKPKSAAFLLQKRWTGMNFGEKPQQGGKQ
UniProt P12419, residues 471-721: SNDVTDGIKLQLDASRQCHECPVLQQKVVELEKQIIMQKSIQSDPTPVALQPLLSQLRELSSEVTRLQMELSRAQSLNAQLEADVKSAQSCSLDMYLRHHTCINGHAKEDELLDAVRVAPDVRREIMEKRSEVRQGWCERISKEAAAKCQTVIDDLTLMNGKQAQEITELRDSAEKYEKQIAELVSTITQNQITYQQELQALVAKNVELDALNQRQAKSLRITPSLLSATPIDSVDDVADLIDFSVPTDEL

Biological target: bacterial β-glucuronidase fused with maltose-binding protein (UniProt P05804)
Test: pull-down; MBP-XIK GTD or MBP-GUS immobilised on resin; GFP-fused proteins detected before (input) and after pull-down by immunoblot with rabbit polyclonal GFP-specific antibody; done as described in ref. 30

C-terminal domain of mammalian reovirus non-structural protein μNS fused to GFP (from UniProt P12419-1 471-721) (domain or fragment)
binding: no binding
